In the supplement of paper PMC10338343:
± gives the standard deviation. This is a selection; strong and weak results do not stand in their true shares. Many of these values have a large error. The list shows a part of the results.

Columns and labels:
[1] = test system: MIWI (PIWIL1) piRISC loaded with L1MC piRNA (30 nt); experiment: pre-steady-state target cleavage rate (min^-1); higher = faster piRNA-guided slicing of the target; details: guide: L1MC piRNA 5'p-UAACUAAAUACUAUGCAAGCUGUAGGUCCU;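 note: 1 nM active piRISC with 0.1 nM target library at 33 °C single turnover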
Outline: (§1)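 The pre-steady-state cleavage rate was derived from a burst-and-steady-state fit of Cleave-'n-Seq data. For these assays, 1 nM active affinity-purified piRISC loaded with a single synthetic guide was mixed with […] a transcribed, DNA-blocked target RNA library in HEPES–potassium acetate buffer at 33 °C, with or without 500 nM GTSF1 partner protein, for 0–8 or 0–960 min. Sequencing counts of uncleaved targets were normalised to depth and to weakly complementary targets, and k3 was capped at 0.0001 min^-1 after three trials were pooled.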

[2] = test system: EfPiwi piRISC loaded with L1MC piRNA (26 nt); experiment: pre-steady-state target cleavage rate (min^-1); guide: L1MC piRNA 5'p-UAACUAAAUACUAUGCAAGCUGUAGG; MIWI and MILI are mouse PIWI proteins and EfPiwi is from a freshwater sponge; tags in brackets are library labels; higher = faster piRNA-guided slicing of the target
Outline: as §1

[3] = auxiliary factor: none (no GTSF1)
[4] = auxiliary factor: 500 nM Ephydatia muelleri Gtsf1
[5] = auxiliary factor: none (no Gtsf1)
[6] = auxiliary factor: 500 nM mouse GTSF1

Sequence	pre-steady-state target cleavage rate [1, 3]	pre-steady-state target cleavage rate [2, 4]	pre-steady-state target cleavage rate [2, 5]	pre-steady-state target cleavage rate [1, 6]
UCCUGGAUGUCGAAGCAUAGUAAUUUAGUUA	0.00155 ± 0.0052	0.00016 ± 0.022	0.000108 ± 0.034	
UCCUGGAUGUCCUUGCAUACAAUUUAGUUA	0.00119 ± 0.0043	0.00091 ± 0.0057	< 0.0001	
UCCUGGAACAGCUUCCAUUGUAUUUAGUUA	0.0024 ± 0.0026	0.00345 ± 0.0017	0.00044 ± 0.018	
UCCUGGAACAGCUUGCAAUGUAUUUACAAA	0.00257 ± 0.0033	0.000369 ± 0.0099	0.000239 ± 0.027	
UCCUGGAUGAGCUUGACAUAGUAUUUAGUUA	0.00329 ± 0.0037	0.00729 ± 0.0021	0.000789 ± 0.0095	
UCCUGGAUGUCGAAGCAUAGUAUUUACUAA	0.000175 ± 0.017	0.000202 ± 0.023	< 0.0001	
UCCUGGAUGUGCUUGCAUAGAUAUUAGAAA	0.000237 ± 0.014	0.00029 ± 0.016	0.000366 ± 0.018	
UCCUGGUACAGCUUCCAAAGUAUUUAGUUA	0.00214 ± 0.0022	0.00178 ± 0.003	0.000592 ± 0.015	
UCCUGGAUGUCGUUGCAUAGUAUUUAGAAA	0.00125 ± 0.0049	0.000522 ± 0.0081	0.000196 ± 0.037	
UCCUGGAUGUCGUUGCAUACUAUUUAGUUA	0.00206 ± 0.0033	0.00174 ± 0.0026	0.000218 ± 0.03	
UCCUGGAACAGCUUCCAUAGUAUUUAGUAA	0.00152 ± 0.0055	0.00376 ± 0.0014	0.0008 ± 0.013	
UCCUGGAUGUCGAUGCAUAGUAUUUAAGUUA	0.00128 ± 0.0058	0.00522 ± 0.0045	0.000254 ± 0.028	
UCCUGGAUGUGCUAGGAUAGUAUUUAGUUA	0.00131 ± 0.0057	0.0009 ± 0.005	0.000286 ± 0.036	
UCCUGGAUCAGCUUCCAUAGUAUUAAGUUA	0.000166 ± 0.021	0.000552 ± 0.0068	0.000149 ± 0.043	
UCCUGGAUGUCGAAGCAAAGUAUUUACUUA	0.000352 ± 0.019	0.000299 ± 0.021	< 0.0001	
UCCUGGAUGAGCUUGCAUAGAUAUUACAAA	0.00102 ± 0.0076	0.00153 ± 0.0072	0.000391 ± 0.022	
UCCUGGAUGUCGAAGGCAUAGUAUUUAGUUA	0.00109 ± 0.0066	0.00272 ± 0.0038	0.00013 ± 0.044	
UCCUGGUACAGCUUGCAUAGUAAAUAGAAA	0.000552 ± 0.012	0.0022 ± 0.0033	0.000257 ± 0.028	
UCCUGGAUGUGCUUGCUUUGUAUUUAGUUA		0.000391 ± 0.01	0.000424 ± 0.026	0.00305 ± 0.0034
UCCUGCUACAGCUUGCAUAGUUAAUAGUAA	0.00186 ± 0.0046	0.00149 ± 0.0022	0.000319 ± 0.019	
UCCUGGAUGAGCUUGCAUACAUUUUAGUUA	0.00107 ± 0.0066	0.000347 ± 0.0095	0.000177 ± 0.039	
UCCUGGAUGUCGAAGCUAUGUAUUUAGUUA	0.00048 ± 0.011	0.000224 ± 0.012	0.00028 ± 0.016	
UCCUGGAACUCCUUGCAUAGUAUUUAGAAA	0.00192 ± 0.0031	0.00313 ± 0.0019	0.00012 ± 0.048	
UCCUGGAUGAGCUUGCAUAGUAUAUACAAA	0.00115 ± 0.0065	0.000539 ± 0.0091	0.000208 ± 0.049	

Individual results from above.
Value for UCCUGGAUGAGCUUGCAUAGAUAUUACAAA under pre-steady-state target cleavage rate [2, 4]: 0.00153 ± 0.0072
Value for UCCUGGAACAGCUUCCAUUGUAUUUAGUUA under pre-steady-state target cleavage rate [1, 3]: 0.0024 ± 0.0026
Value for UCCUGGAUGUCGUUGCAUACUAUUUAGUUA under pre-steady-state target cleavage rate [2, 4]: 0.00174 ± 0.0026

The list continues:

Sequence	pre-steady-state target cleavage rate [1, 3]	pre-steady-state target cleavage rate [2, 4]	pre-steady-state target cleavage rate [2, 5]	pre-steady-state target cleavage rate [1, 6]
UCCUGGUACAGCUACGAUAGUAUUUAGUUA	0.00125 ± 0.0042	0.000512 ± 0.0078	0.00101 ± 0.0085	
UCCUGGAACAGCUUGCUAGUAUUUAGUUA	0.00225 ± 0.0032	0.00264 ± 0.0038	0.00151 ± 0.0067	
UCCUCCUACAGCUUGCAUACAAUUUAGAAA	0.000411 ± 0.0087	0.00216 ± 0.0041	0.000314 ± 0.022	
UCCUGGAUGUCGAUGCAUAGUAGUUUAGUUA	0.000977 ± 0.0081	0.00123 ± 0.0067	0.000198 ± 0.056	
UCCUGGAUGAGCAUGCAUAGUAUUUACAAA	0.00132 ± 0.005	0.00229 ± 0.0027	0.000244 ± 0.027	
UCCUGGAUGUCGAUGGCAUAGUAUUUAGUUA	0.00143 ± 0.0068	0.00329 ± 0.0037	0.000908 ± 0.0097	
UCCUGGAAGUGCUUGCAUAGUAUUUUCAAA	0.000991 ± 0.005	0.000754 ± 0.0045	0.000484 ± 0.012	
UCCUGGAUGAGGUUGGAUAGUAUUUAGUUA	0.000871 ± 0.0083	0.00162 ± 0.0075	0.000418 ± 0.02	
UCCUGGUACAGCUUGGUAAGUAUUUAGUUA	0.00217 ± 0.0041	0.00282 ± 0.0054	0.00049 ± 0.03	
UCCUCCUACAGCUUGCAUAGUUUUAGUUA	0.00127 ± 0.0056	0.00276 ± 0.0023	0.0002 ± 0.019	
UCCUCCUACACGAUGCAUAGUAUUUAGUAA	0.000974 ± 0.0039	0.00453 ± 0.0027	0.000575 ± 0.011	
UCCUGGAUGUCGAAGCAAUGUAUUUAGUUA	0.00062 ± 0.0099	0.000732 ± 0.0078	0.000303 ± 0.019	
UCCUGGAUGAGGAAGCAUAGUAUUUAGUUA	0.00111 ± 0.0061	0.00139 ± 0.0043	0.000394 ± 0.019	
UCCUGGAUGAGCUUGCUAAGUAUUUAGUUA	0.00229 ± 0.0025	0.00188 ± 0.0037	0.000796 ± 0.0089	
UCCUGGAUGUCGUUGUAUAGUAUUUAGUUA	0.00237 ± 0.0027	0.00311 ± 0.0038	0.000409 ± 0.031	
UCCUGCUACAGCUUGCAUAGAUAUUAGUUA	0.00137 ± 0.0037	0.00184 ± 0.0047	0.000329 ± 0.016	
UCCUGCUACAGCUUGCGAUAGUAUUUAGUUA	0.00174 ± 0.0041	0.00987 ± 0.0026	0.00213 ± 0.0051	
UCCUGGAUGUCCUUGCAGAGUAUUUAGUUA		0.000448 ± 0.011	0.000224 ± 0.029	0.00362 ± 0.0046
UCCUGGAUGUCCUAGCAUAGUAUUUAGUUA	0.0026 ± 0.0028	0.00246 ± 0.0036	0.00102 ± 0.0069	
UCCUGCUACAGCUUGGAUAGUAUUUACAAA	0.000792 ± 0.0076	0.00306 ± 0.0026	< 0.0001	
UCCUGCUACAGCUUGCAUAGUAAUAAGUUA	0.00163 ± 0.0041	0.0044 ± 0.002	0.000518 ± 0.01	
UCCUGGAUGUGCUAGCAUACUAUUUAGUUA	0.0025 ± 0.0032	0.000791 ± 0.011	0.000582 ± 0.013	
UCCUGGAUGUCCUUCAUAGUAUUUAGUUA	0.00162 ± 0.0033	0.00186 ± 0.0053	0.000333 ± 0.023	
